Results deposited as PubChem BioAssay AID1259424 (University of Nebraska Medical Center, 2018).
Test: 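Seek colon cancer survival genes behaving like KSR1, using a six-gene signature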 (primary screen). Cells: human HCT116 colon cancer cells. Reagent: siRNA pool against human genes, 50 nM. Measurement: 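Log2 levels of six mRNAs (branched-DNA multiplex), adjusted by two reference genes and the non-targeting median, then scored against the average KSR1 knockdown pattern as Pearson r and euclidean distance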. Reading the numbers: mean correlation with KSR1 profile and KSR1 correlation: higher = expression change more like KSR1 knockdown; mean distance from KSR1 profile: higher = expression change less like KSR1 knockdown.
The deposit covers about 14,000 reagents; shown is an unselected part. 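Higher correlation or smaller distance means closer resemblance to KSR1 loss; control wells, including KSR1 knockdowns, recur on many plates.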 Not stated in the record: the time to read-out.

| Target gene | mean correlation with KSR1 profile | mean distance from KSR1 profile | KSR1 correlation, replicate 1 | KSR1 correlation, replicate 2 | KSR1 correlation, replicate 3 |
| --- | --- | --- | --- | --- | --- |
| KATNIP (katanin interacting protein) | -0.778 | 2.85 | -0.614 | -0.765 | -0.761 |
| GNAQ (G protein subunit alpha q) | 0.673 | 2.2 | 0.58 | 0.678 | 0.727 |
| PLXNA4 (plexin A4) | -0.366 | 1.53 | -0.412 | -0.334 | -0.17 |
| SLC16A6 | -0.33 | 1.63 | -0.299 | -0.22 | 0.0517 |
| UBL3 (ubiquitin like 3) | -0.578 | 1.65 | -0.604 | -0.496 | -0.285 |
| TMCC1 (transmembrane and coiled-coil domain family 1) | -0.506 | 2.01 | -0.508 | -0.733 | -0.676 |
| PUDP (pseudouridine 5'-phosphatase) | -0.171 | 1.59 | -0.072 | -0.327 | -0.0401 |
| G6PC1 (glucose-6-phosphatase catalytic subunit 1) | -0.29 | 2.9 | 0.000427 | -0.00142 | -0.452 |
| ARL5A (ARF like GTPase 5A) | -0.83 | 3.18 | -0.832 | -0.776 | -0.753 |
| DENND2A (DENN domain containing 2A) | -0.464 | 1.32 | -0.765 | -0.595 | -0.493 |
| PTPN5 (protein tyrosine phosphatase non-receptor type 5) | 0.642 | 1.84 | 0.784 | 0.613 | 0.468 |
| ELAC2 (elaC ribonuclease Z 2) | -0.431 | 4.65 | 0.572 | -0.601 | -0.307 |
| XRCC4 (X-ray repair cross complementing 4) | -0.277 | 2.57 | -0.284 | -0.379 | -0.249 |
| TOMM20 (translocase of outer mitochondrial membrane 20) | -0.367 | 2.04 | -0.327 | -0.429 | -0.0813 |
| SOX21 (SRY-box transcription factor 21) | 0.366 | 1.7 | 0.337 | 0.332 | 0.295 |
| SERINC3 (serine incorporator 3) | -0.566 | 1.71 | -0.481 | -0.59 | -0.507 |
| ALPI (alkaline phosphatase, intestinal) | -0.489 | 2.78 | -0.582 | -0.452 | -0.373 |
| NIP7 (nucleolar pre-rRNA processing protein NIP7) | 0.276 | 3.65 | 0.295 | 0.0871 | 0.375 |
| AKR1A1 (aldo-keto reductase family 1 member A1) | -0.199 | 2.33 | -0.411 | -0.227 | -0.1 |
| GYPA (glycophorin A (MNS blood group)) | -0.124 | 1.66 | -0.208 | -0.283 | -0.17 |
| GNG12 (G protein subunit gamma 12) | 0.64 | 1.91 | 0.658 | 0.693 | 0.573 |
| BCL2L10 (BCL2 like 10) | 0.0125 | 1.39 | -0.126 | -0.26 | 0.283 |
| ZZZ3 (zinc finger ZZ-type containing 3) | 0.489 | 2.07 | 0.449 | 0.426 | 0.571 |
| CLSTN3 (calsyntenin 3) | 0.00836 | 2.78 | 0.0791 | -0.0158 | 0.0819 |
| TGS1 (trimethylguanosine synthase 1) | 0.568 | 1.46 | 0.519 | 0.6 | 0.545 |
| SLC37A4 | 0.195 | 1.58 | 0.128 | -0.0626 | 0.243 |
| RPAP1 (RNA polymerase II associated protein 1) | -0.479 | 3.97 | -0.395 | -0.638 | -0.478 |
| DCLRE1B (DNA cross-link repair 1B) | -0.124 | 2.33 | 0.0404 | -0.346 | -0.213 |

Sorted by “KSR1 correlation, replicate 1” (high to low): some entries from above
| Target gene | mean correlation with KSR1 profile | mean distance from KSR1 profile | KSR1 correlation, replicate 1 | KSR1 correlation, replicate 2 | KSR1 correlation, replicate 3 |
| --- | --- | --- | --- | --- | --- |
| GNG12 (G protein subunit gamma 12) | 0.64 | 1.91 | 0.658 | 0.693 | 0.573 |
| BCL2L10 (BCL2 like 10) | 0.0125 | 1.39 | -0.126 | -0.26 | 0.283 |
| GYPA (glycophorin A (MNS blood group)) | -0.124 | 1.66 | -0.208 | -0.283 | -0.17 |

Additional results follow:
| Target gene | mean correlation with KSR1 profile | mean distance from KSR1 profile | KSR1 correlation, replicate 1 | KSR1 correlation, replicate 2 | KSR1 correlation, replicate 3 |
| --- | --- | --- | --- | --- | --- |
| GLI4 (GLI family zinc finger 4) | 0.113 | 1.98 | 0.416 | 0.139 | -0.00455 |
| DEGS1 (delta 4-desaturase, sphingolipid 1) | 0.0784 | 2.77 | 0.172 | 0.426 | 0.227 |
| ZNG1A (Zn regulated GTPase metalloprotein activator 1A) | -0.186 | 2.13 | -0.683 | 0.115 | -0.0749 |
| ZNF177 (zinc finger protein 177) | 0.535 | 2.8 | 0.299 | 0.684 | 0.635 |
| MIR600HG (MIR600 host gene) | -0.0484 | 3.27 | -0.13 | -0.186 | -0.432 |
| ZFYVE16 (zinc finger FYVE-type containing 16) | -0.311 | 1.57 | -0.613 | -0.0684 | 0.159 |
| SIGLEC5 (sialic acid binding Ig like lectin 5) | 0.413 | 2.81 | 0.335 | 0.492 | 0.546 |
| OGG1 (8-oxoguanine DNA glycosylase) | 0.208 | 2.63 | 0.167 | 0.17 | 0.203 |
| NR0B1 (nuclear receptor subfamily 0 group B member 1) | -0.523 | 1.78 | -0.488 | -0.422 | -0.519 |
| LSM2 | -0.322 | 2.58 | -0.149 | -0.21 | -0.307 |
| RGL2 (ral guanine nucleotide dissociation stimulator like 2) | -0.361 | 2.26 | -0.211 | -0.316 | -0.464 |
| GINS4 (GINS complex subunit 4) | 0.592 | 1.21 | 0.492 | 0.468 | 0.649 |
| EAF2 (ELL associated factor 2) | -0.688 | 1.63 | -0.504 | -0.622 | -0.713 |
| SMARCAL1 (SNF2 related chromatin remodeling annealing helicase 1) | 0.143 | 1.4 | 0.0429 | -0.104 | 0.373 |
| ENTPD6 (ectonucleoside triphosphate diphosphohydrolase 6) | 0.374 | 1.61 | 0.312 | 0.371 | 0.344 |
| GCAT (glycine C-acetyltransferase) | -0.575 | 3.74 | -0.63 | -0.596 | -0.465 |
| SERPING1 (serpin family G member 1) | -0.347 | 4.49 | -0.301 | -0.321 | -0.488 |
| HYDIN (HYDIN axonemal central pair apparatus protein) | -0.644 | 10 | -0.445 | -0.65 | -0.0729 |
| TCTN1 (tectonic family member 1) | 0.688 | 1.24 | 0.718 | 0.564 | 0.612 |
| TLNRD1 (talin rod domain containing 1) | -0.299 | 3.43 | -0.258 | -0.296 | -0.284 |
| FGF7 (fibroblast growth factor 7) | 0.078 | 2.41 | -0.148 | 0.159 | 0.202 |
| CDC42EP3 (CDC42 effector protein 3) | 0.559 | 2.74 | 0.544 | 0.633 | 0.642 |
